# Experimental data from paper doi:10.1101/2022.03.02.482654.
# Chains of the proteins cited; added tags and fusions are not shown. Lines headed by an entry give the natural chain unless they say otherwise; changes in a name come on top.
# UniProt F4IHY7: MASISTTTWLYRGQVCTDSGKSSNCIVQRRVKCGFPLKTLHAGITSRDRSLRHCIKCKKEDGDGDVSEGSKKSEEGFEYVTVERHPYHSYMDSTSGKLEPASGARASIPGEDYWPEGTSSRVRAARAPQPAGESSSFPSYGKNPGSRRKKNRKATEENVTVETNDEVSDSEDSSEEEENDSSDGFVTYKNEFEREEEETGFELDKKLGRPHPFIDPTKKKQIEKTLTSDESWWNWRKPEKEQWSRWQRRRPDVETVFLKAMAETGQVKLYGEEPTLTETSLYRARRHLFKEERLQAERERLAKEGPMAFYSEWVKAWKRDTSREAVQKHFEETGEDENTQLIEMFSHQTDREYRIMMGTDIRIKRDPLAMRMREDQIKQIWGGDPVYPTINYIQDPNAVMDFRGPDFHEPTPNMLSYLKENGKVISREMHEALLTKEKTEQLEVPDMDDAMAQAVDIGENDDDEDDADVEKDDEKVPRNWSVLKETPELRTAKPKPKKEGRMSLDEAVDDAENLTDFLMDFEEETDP
# UniProt Q9SR02: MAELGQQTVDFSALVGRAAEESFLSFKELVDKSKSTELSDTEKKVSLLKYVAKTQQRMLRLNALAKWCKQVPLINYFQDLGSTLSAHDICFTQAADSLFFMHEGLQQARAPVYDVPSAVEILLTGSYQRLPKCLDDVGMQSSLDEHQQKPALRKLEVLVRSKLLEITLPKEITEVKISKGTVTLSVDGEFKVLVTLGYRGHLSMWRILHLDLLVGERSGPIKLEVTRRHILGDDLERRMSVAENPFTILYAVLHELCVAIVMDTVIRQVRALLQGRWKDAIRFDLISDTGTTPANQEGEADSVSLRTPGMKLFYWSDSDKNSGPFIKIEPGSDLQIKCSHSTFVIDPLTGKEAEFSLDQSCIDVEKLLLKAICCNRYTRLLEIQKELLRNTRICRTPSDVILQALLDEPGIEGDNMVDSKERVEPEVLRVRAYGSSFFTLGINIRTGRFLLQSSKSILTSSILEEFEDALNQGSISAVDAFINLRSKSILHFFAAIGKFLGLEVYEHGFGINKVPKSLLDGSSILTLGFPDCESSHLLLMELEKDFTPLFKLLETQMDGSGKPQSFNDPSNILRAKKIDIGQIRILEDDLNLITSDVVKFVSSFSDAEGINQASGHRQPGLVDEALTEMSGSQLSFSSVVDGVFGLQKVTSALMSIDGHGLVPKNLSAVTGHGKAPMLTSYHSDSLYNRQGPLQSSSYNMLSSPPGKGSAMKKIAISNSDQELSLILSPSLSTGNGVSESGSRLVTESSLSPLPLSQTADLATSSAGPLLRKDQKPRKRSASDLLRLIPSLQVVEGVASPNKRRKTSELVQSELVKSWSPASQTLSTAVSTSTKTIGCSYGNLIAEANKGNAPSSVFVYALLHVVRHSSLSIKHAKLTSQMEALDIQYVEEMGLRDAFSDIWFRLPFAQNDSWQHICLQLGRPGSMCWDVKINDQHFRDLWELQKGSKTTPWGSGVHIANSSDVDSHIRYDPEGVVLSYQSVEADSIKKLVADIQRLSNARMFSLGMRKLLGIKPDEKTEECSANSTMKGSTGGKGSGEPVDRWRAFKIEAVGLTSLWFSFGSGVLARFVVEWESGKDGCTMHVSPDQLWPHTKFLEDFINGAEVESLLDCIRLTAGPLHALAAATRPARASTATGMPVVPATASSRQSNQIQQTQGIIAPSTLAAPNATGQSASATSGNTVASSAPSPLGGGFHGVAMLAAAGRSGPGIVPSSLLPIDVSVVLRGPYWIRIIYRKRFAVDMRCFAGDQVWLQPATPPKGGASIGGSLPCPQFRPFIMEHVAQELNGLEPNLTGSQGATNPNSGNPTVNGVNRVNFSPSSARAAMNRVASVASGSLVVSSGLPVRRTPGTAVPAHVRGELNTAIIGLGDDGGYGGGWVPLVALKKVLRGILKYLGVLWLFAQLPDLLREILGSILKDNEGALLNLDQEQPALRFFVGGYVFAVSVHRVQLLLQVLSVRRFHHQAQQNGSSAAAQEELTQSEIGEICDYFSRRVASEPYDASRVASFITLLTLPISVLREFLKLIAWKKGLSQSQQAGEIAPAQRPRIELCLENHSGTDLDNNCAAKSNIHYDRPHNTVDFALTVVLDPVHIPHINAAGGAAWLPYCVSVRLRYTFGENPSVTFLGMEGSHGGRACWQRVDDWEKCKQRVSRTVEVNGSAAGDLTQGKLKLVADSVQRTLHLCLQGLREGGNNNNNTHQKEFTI
# No constants are given. Whether binding was seen depends on the method and setting. In cells and extracts the contact can be indirect. A result given as binding can be weak or reduced; the word gives no strength.
# Target: GST-HMR (HEMERA) (Arabidopsis thaliana) (UniProt F4IHY7)
# Assay: pull-down
substance,measurement,value
HA-MED14 (from UniProt Q9SR02 1-1703),binding,binds
